The subject of one data set is PTZ-induced seizures. The data set can be described thus: Subcutaneous pentylenetetrazole (PTZ) test. The format is in vivo. The following applies: TD50 rotarod / ED50 scPTZ, mice i.p. As to the method: (§1) Male Kunming mice with weights from 18 to 22 g were used in all the pharmacological experiments. The mice were housed in the standard cages with 10 each, where a controlled temperature (25°C ± 2°C) with a 12 h light/dark cycle was maintained. All animals had free access to food and water. All experiments and procedures involving animals were carried out according to the Guide for the Care and Use of Laboratory Animals (National Academies Press, Washington, D.C., United States). Approval from the local medical ethical committee was obtained before the experiment.
In the PTZ test, mice were subcutaneously administered with PTZ at the dose of 85 mg/kg. At this dose, mice can be elicited a threshold seizure characterized by an episode of clonic spasms and tonic spasms. After being treated with test compounds at doses of 300, 100, and 30 mg/kg, the mice were considered protected if a single episode of clonic spasms of more than 5 s duration was not obtained. The quantitative anticonvulsant activity (ED50) in the PTZ model was determined and calculated with the same method described in the MES test.

Data set [1] is described as follows: Neurotoxicity screening (rotarod test). The conditions noted are these: male, Kunming, mouse, in vivo, ip, mice, 95% confidence interval in brackets. As to the method:
as §1
The rotarod test was used to evaluate the neurotoxicity of the synthesized compounds. Before the formal experiments, mice were trained to climb on a rotating rod of diameter 3.2 cm with the rotation speed of 10 rpm. Test compounds in the three doses were intraperitoneally injected into the trained mice. […] The rough neurotoxic dose was obtained in which mice cannot maintain equilibrium on the rod for at least 1 min. The quantitative neurotoxic dose (TD50) of the test compounds was measured and calculated with the same method described in the MES test.

The next data set has as its system MES-induced seizures. Kind of data set: Maximal electroshock seizure (MES) test. The data set is classed as in vivo. The following applies: TD50 rotarod / ED50 MES, mice i.p. As to the method:
as §1
In the MES test, mice were subjected to ear stimulation using a 0.2 s 60-Hz 50-mA alternating current to elicit seizures. Tonic hind limb extension was considered as the seizure occurring, and the vanishing of tonic hind limb extension indicates the protection against the MES-induced seizures. Mice were injected intraperitoneally with test compounds at doses of 300, 100, and 30 mg/kg to evaluate their general anticonvulsant activity. Half and 4 h intervals were chosen to test the anti-MES activity. Based on the rough effective dose obtained in the aforementioned assay, compounds effective at the dose of 30 mg/kg were subjected to the quantitative assay to determine their median effective dose (ED50). A series of doses of the tested compounds were injected into the mice with 10 in one group.

Data on one molecule can be found in article PMC9260081, “Design, Synthesis, and Evaluation of Anticonvulsant Activities of New Triazolopyrimidine Derivatives” (Frontiers in Chemistry, 2022).

Molecules are shown by their SMILES.

With `CN1C(=O)CN=C(c2ccccc2)c2cc(Cl)ccc21` [Diazepam, reference compound], the “PI scPTZ, protective index (TD50/ED50)” value with PTZ-induced seizures is 6.6. In data set [1], this molecule displayed a TD50 at 30 min of 3.3 mg/kg. For the same molecule, the “PI MES, protective index (TD50/ED50)” value in the data set on MES-induced seizures is on record as 0.33.
